Measured values taken from PubChem BioAssay AID504834 (National Center for Advancing Translational Sciences (NCATS), 2011).
Hit rate of the full screen: of about 320,000 compounds, about 22,000 (6.9%) were called active. Inconclusive means that the source gave no clear call. Such entries were picked first, then a sample of the others. Calls come from the whole dose curve; as a rule, active = well fitted inhibition curve with a large enough effect; inconclusive = small, poorly fitted or top-dose-only effect, or another doubt; inactive = no such curve, though single readings can be large or run the other way. Potencies beside an inconclusive call are fits to weak or partial responses and may not hold up.

assay: Primary qHTS for delayed death inhibitors of the malarial parasite plastid, 96 hour incubation; settings: P. falciparum luciferase reporter growth; series mostly up to 28.7 µM; activity change, negative = inhibition: at the top concentration
Method in brief: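 Readout is luminescence from an integrated firefly luciferase in P. falciparum. Red cells, 2% hematocrit and 0.05% parasitemia final, were cultured with compound through two parasite generations (96 hours) at 37 C, 5% CO2.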
% is set by controls: 0 for no effect and ±100 for the full control effect; potency is the fitted concentration of half-maximal effect.

Row | SMILES | activity change, negative = inhibition | Potency
1 | O=C(C1CCCN(S(=O)(=O)c2ccccc2[N+](=O)[O-])C1)N1CCCC1 (centres undefined) | inactive: -27.9% | –
2 | CC(=O)N1CCCc2cc(S(=O)(=O)N3CCCC(C(=O)NCc4ccc(C)cc4)C3)ccc21 (centres undefined) | inactive: 7.32% | –
3 | Cn1c(=O)[nH]c(=O)c2c1nc(N1CCOCC1)n2CC(O)COc1ccccc1 (centres undefined) | – | inconclusive: 11.7 µM [inhibitor, single point]
4 | COc1ccc(OC)c(N2C(=O)NC(=O)C3(Cc4cc(C)ccc4N(C)C3)C2=O)c1 (centres undefined) | – | inconclusive: 8.28 µM [inhibitor, partial curve]
5 | CCCNc1c(NS(=O)(=O)c2ccc(OC)c(OC)c2)c(=O)oc2ccccc12 | – | inconclusive: 20.8 µM [inhibitor, partial curve, poor fit]
6 | COc1cccc(/C=C2\SC(=N)N(c3ccc(F)cc3)C2=O)c1 | – | inconclusive: 5.86 µM [inhibitor, single point]
7 | COC(=O)c1cc2oc(C)cc2n1CC(=O)Nc1cc(C)cc(C)c1 | – | inconclusive: 10.4 µM [inhibitor, single point]
8 | O=C(O)C1C2CCC(CC2)C1C(=O)N1CCN(Cc2ccc(F)cc2)CC1 (centres undefined) | inactive: 0% | –
9 | COc1ccc(-c2cn3cc(C)ccc3n2)cc1Br | inactive: -5.73% | –
10 | Brc1nc(Br)n(Cc2ccccc2)n1 | – | inconclusive: 0.117 µM [inhibitor, partial curve, poor fit]
11 | COc1ccc(OC)c(C(=O)NC(CC(N)=O)c2ccc(NCc3ccccn3)c([N+](=O)[O-])c2)c1 (centres undefined) | – | inconclusive: 18.5 µM [inhibitor, single point]
12 | CCOc1ccc(C(C)=O)cc1COC(=O)CCc1cc(OC)c(OC)c(OC)c1 | – | active: 8.28 µM
13 | CC(=O)c1ccc(Nc2ncnc3c2oc2ccccc23)cc1 | inactive: 491% | –
14 | C[C@@]12C(=O)N(c3ccc(C(F)(F)F)cc3)C(=O)N1[C@@H]1c3ccccc3OC[C@@H]1[C@H]2c1ccccc1 | – | active: 4.15 µM
15 | O=C(Nc1nc2c(F)cccc2s1)c1ccco1 | inactive: 28.4% | –
16 | CC(C)(C)c1cc(CCC(=O)NCc2ccccn2)cc(C(C)(C)C)c1O | – | active: 11.7 µM
17 | CNNCc1ccc(C(=O)NC(C)C)cc1 | – | inconclusive: 4.78 µM [inhibitor, partial curve, poor fit]
18 | Cc1ccc(-c2c[n+](CC(=O)c3cccs3)c3n2CCC3)cc1 | – | active: 4.15 µM
19 | CC(=O)NCCC(=O)Nc1cc(S(=O)(=O)N2CCOCC2)ccc1N1CCCC1 | inactive: 0.0219% | –
20 | CN(C)S(=O)(=O)N1CCCC(C(=O)c2ccc(C(F)(F)F)cc2)C1 (centres undefined) | – | active: 0.828 µM
21 | CC(=O)C1=C(c2ccccc2)N(C(C)=O)n2c(C)nnc2S1 | inactive: -20.2% | –
22 | CCOc1ccc(S(=O)(=O)N2CCCC(C(=O)NCc3ccncc3)C2)cc1Cl (centres undefined) | – | inconclusive: 1.17 µM [inhibitor, full curve, poor fit]
23 | CCCCC(=O)Nc1ccc2c(c1)nc(CCN1CCOCC1)n2C | – | inconclusive: 18.5 µM [inhibitor, single point]

Row | SMILES | activity change, negative = inhibition | Potency
24 | Cc1cc(C)cc(N(C(=O)Cc2cccs2)C(C(=O)NC2CCCC2)c2ccc(C)o2)c1 (centres undefined) | – | inconclusive: 13.1 µM [inhibitor, single point]
25 | CCOC(=O)c1c(NC(=S)Nc2cc([N+](=O)[O-])ccc2OC)sc2c1CCCCC2 | – | inconclusive: 0.828 µM [inhibitor, full curve, poor fit]
26 | COc1ccc(Nc2nc(Cl)nc(N3CCN(c4ccc(OC)cc4)CC3)n2)cc1 | – | active: 11.7 µM
27 | CCOc1ccc(N(CC(=O)Nc2ccc(OC)cc2)C2=NC3CS(=O)(=O)CC3S2)cc1 (centres undefined) | – | active: 13.1 µM
28 | Cc1cc([N+](=O)[O-])cc([N+](=O)[O-])c1NCC(C)C | – | inconclusive: 18.5 µM [inhibitor, single point]
29 | CC12OC1C1(O)CCCC1=CC2=O (centres undefined) | – | inconclusive: 11.7 µM [inhibitor, single point]
30 | C/C(CC(=O)Nc1ccccc1)=N\NC(=O)COc1ccc(C)cc1Br | – | inconclusive: 11.7 µM [inhibitor, single point]
31 | COc1ccc(C(NC(=O)CN2C(=O)NC3(CCc4ccccc43)C2=O)c2ccccc2)cc1 (centres undefined) | – | inconclusive: 11.7 µM [inhibitor, single point]
32 | Cn1c(=O)c2c(ncn2CC(=O)Nc2cc(Cl)c(Cl)cc2Cl)n(C)c1=O | – | inconclusive: 0.147 µM [inhibitor, partial curve, poor fit]
33 | COC(=O)C1(CCSC)NC(c2ccccc2OC)C2C(=O)N(C)C(=O)C21 (centres undefined) | inactive: -2.14% | –
34 | CC(C)(C)NCC(O)CON=C1c2ccccc2-c2ccccc21 (centres undefined) | – | inconclusive: 18.5 µM [inhibitor, single point]
35 | COc1ccccc1CNC(=O)CSc1ccc(-c2ccccn2)nn1 | inactive: -28.4% | –
36 | O=C(c1cn(-c2ccccc2)nc1-c1ccc(Br)cc1)N1CCOCC1 | inactive: 7.96% | –
37 | CCCCn1c(SCC(=O)NC2CCCC2)nc2ccccc2c1=O | – | inconclusive: 2.94 µM [inhibitor, partial curve, poor fit]
38 | Cc1ccc(/C=N/NC(=O)CNC(=O)COc2ccccc2)cc1 | inactive: -25% | –
39 | CCOc1ccc2[nH]c(C(=O)N/N=C/c3ccccc3OC)cc2c1 | – | inconclusive: 11.7 µM [inhibitor, single point]
40 | Cn1c(Oc2ccccc2)c(C=O)c2ccccc21 | – | inconclusive: 13.1 µM [inhibitor, partial curve, poor fit]
41 | COC(=O)c1ccccc1NC(=O)CN(Cc1ccc(Cl)cc1)S(C)(=O)=O | – | inconclusive: 9.28 µM [inhibitor, single point]
42 | Cc1ccc(C)c(N(CC(=O)NCc2ccco2)C(=O)CCC(=O)Nc2nccs2)c1 | – | inconclusive: 4.65 µM [inhibitor, partial curve]
43 | Cn1cnc(S(=O)(=O)N2CCN(c3ccc(Cl)cc3)CC2)c1 | – | inconclusive: 11.7 µM [inhibitor, partial curve, poor fit]
44 | CCOc1ccc(OCC)c(S(=O)(=O)n2cc(C)nc2CC)c1 | – | inconclusive: 1.31 µM [inhibitor, partial curve, poor fit]
45 | COc1ccc([C@@H]2[C@@H]3C(=O)N(C(C)(C)C)C(=O)[C@@H]3[C@]3(Cc4ccc(Cl)cc4)C(=O)N(c4ccc(OC)cc4)C(=O)N23)cc1 | – | active: 13.1 µM
46 | CCOc1cc(NC(=S)Nc2ccccc2OC)c(OCC)cc1NC(=O)c1ccccc1C | – | inconclusive: 14.7 µM [inhibitor, partial curve, poor fit]

A section of the results above, for reference:
Row | SMILES | activity change, negative = inhibition | Potency
3 | Cn1c(=O)[nH]c(=O)c2c1nc(N1CCOCC1)n2CC(O)COc1ccccc1 (centres undefined) | – | inconclusive: 11.7 µM [inhibitor, single point]
4 | COc1ccc(OC)c(N2C(=O)NC(=O)C3(Cc4cc(C)ccc4N(C)C3)C2=O)c1 (centres undefined) | – | inconclusive: 8.28 µM [inhibitor, partial curve]
5 | CCCNc1c(NS(=O)(=O)c2ccc(OC)c(OC)c2)c(=O)oc2ccccc12 | – | inconclusive: 20.8 µM [inhibitor, partial curve, poor fit]
6 | COc1cccc(/C=C2\SC(=N)N(c3ccc(F)cc3)C2=O)c1 | – | inconclusive: 5.86 µM [inhibitor, single point]
7 | COC(=O)c1cc2oc(C)cc2n1CC(=O)Nc1cc(C)cc(C)c1 | – | inconclusive: 10.4 µM [inhibitor, single point]
8 | O=C(O)C1C2CCC(CC2)C1C(=O)N1CCN(Cc2ccc(F)cc2)CC1 (centres undefined) | inactive: 0% | –
9 | COc1ccc(-c2cn3cc(C)ccc3n2)cc1Br | inactive: -5.73% | –
10 | Brc1nc(Br)n(Cc2ccccc2)n1 | – | inconclusive: 0.117 µM [inhibitor, partial curve, poor fit]
11 | COc1ccc(OC)c(C(=O)NC(CC(N)=O)c2ccc(NCc3ccccn3)c([N+](=O)[O-])c2)c1 (centres undefined) | – | inconclusive: 18.5 µM [inhibitor, single point]
12 | CCOc1ccc(C(C)=O)cc1COC(=O)CCc1cc(OC)c(OC)c(OC)c1 | – | active: 8.28 µM
13 | CC(=O)c1ccc(Nc2ncnc3c2oc2ccccc23)cc1 | inactive: 491% | –
14 | C[C@@]12C(=O)N(c3ccc(C(F)(F)F)cc3)C(=O)N1[C@@H]1c3ccccc3OC[C@@H]1[C@H]2c1ccccc1 | – | active: 4.15 µM
15 | O=C(Nc1nc2c(F)cccc2s1)c1ccco1 | inactive: 28.4% | –
16 | CC(C)(C)c1cc(CCC(=O)NCc2ccccn2)cc(C(C)(C)C)c1O | – | active: 11.7 µM
17 | CNNCc1ccc(C(=O)NC(C)C)cc1 | – | inconclusive: 4.78 µM [inhibitor, partial curve, poor fit]
18 | Cc1ccc(-c2c[n+](CC(=O)c3cccs3)c3n2CCC3)cc1 | – | active: 4.15 µM
19 | CC(=O)NCCC(=O)Nc1cc(S(=O)(=O)N2CCOCC2)ccc1N1CCCC1 | inactive: 0.0219% | –
20 | CN(C)S(=O)(=O)N1CCCC(C(=O)c2ccc(C(F)(F)F)cc2)C1 (centres undefined) | – | active: 0.828 µM
21 | CC(=O)C1=C(c2ccccc2)N(C(C)=O)n2c(C)nnc2S1 | inactive: -20.2% | –

2 records picked at random from the list so far, as already listed:
Row | SMILES | activity change, negative = inhibition | Potency
34 | CC(C)(C)NCC(O)CON=C1c2ccccc2-c2ccccc21 (centres undefined) | – | inconclusive: 18.5 µM [inhibitor, single point]
44 | CCOc1ccc(OCC)c(S(=O)(=O)n2cc(C)nc2CC)c1 | – | inconclusive: 1.31 µM [inhibitor, partial curve, poor fit]

Additional records follow:

Row | SMILES | activity change, negative = inhibition | Potency
47 | CCOC(=O)c1cc2cc(OC)ccc2nc1C | – | inconclusive: 18.5 µM [inhibitor, single point]
48 | CC1CCc2c(C(=O)NCc3ccco3)csc2C1 (centres undefined) | inactive: 47.8% | –
49 | O=C(c1ccc(CS(=O)(=O)c2ccccc2)o1)N1CCC2(CC1)OCCO2 | inactive: -3.56% | –
50 | C=C(C)C(=O)Nc1cccnc1Oc1ccc(F)cc1F | inactive: 4.98% | –
51 | CCCCC(CC)CNC(=O)C(=O)c1ccccc1NC(C)=O (centres undefined) | – | inconclusive: 5.22 µM [inhibitor, partial curve, poor fit]
52 | CCCCCCOc1ccc(/C=N/NC(=O)C2CC2)cc1 | inactive: 12.2% | –
53 | O=C(CN1CC(=O)Oc2ccccc21)NCc1ccco1 | inactive: 6.13% | –
54 | COc1cc2c(cc1OC)C(C(=O)Nc1cc(OC)c(OC)c(OC)c1)C(c1cccnc1)N(C)C2=O (centres undefined) | – | inconclusive: 8.28 µM [inhibitor, partial curve, poor fit]
55 | Fc1cnc(Cl)nc1NC1CCCCC1 | – | active: 4.65 µM
56 | CCOc1ccc(C(=O)Nc2ccc3nc(N4CCN(CC)CC4)cc(C)c3c2)cc1 | inactive: 18.2% | –
57 | CCNC(=S)NCc1ccco1 | – | inconclusive: 20.8 µM [inhibitor, partial curve, poor fit]
58 | CCC(O)(CC)C(=O)N(Nc1ccc(C)cc1)c1ccc(C)cc1 | – | inconclusive: 13.1 µM [inhibitor, partial curve]
59 | COc1cccc(N2C(=O)C(O)=C(C(C)=O)C2c2ccc(OC)c(OC)c2)c1 (centres undefined) | – | inconclusive: 0.294 µM [inhibitor, full curve, poor fit]
60 | N=c1c(C(=O)NCC2CCCO2)cc2c(=O)n3ccccc3nc2n1Cc1ccc(F)cc1 (centres undefined) | – | inconclusive: 10.4 µM [inhibitor, partial curve, poor fit]
61 | CC(=O)c1ccc(NC(=O)C(C)n2c3ccccc3c3nc(=O)cc(C)n32)cc1 (centres undefined) | – | inconclusive: 16.5 µM [inhibitor, single point]
62 | CCOc1ccc(NC(=O)CC2C(=O)N(c3ccccc3)C(=S)N2Cc2ccccn2)cc1 (centres undefined) | – | inconclusive: 18.5 µM [inhibitor, single point]
63 | COCC1CCN(C(=O)C2CCC(=O)N(Cc3cccc(C(F)(F)F)c3)C2)CC1 (centres undefined) | – | inconclusive: 0.0586 µM [inhibitor, full curve]
64 | Cc1ccc(N(Cc2ccccc2)C(=O)Cc2ccc(S(=O)(=O)N3CCOCC3)s2)cc1 | – | inconclusive: 5.86 µM [inhibitor, partial curve, poor fit]
65 | CCOC(=O)c1cc(-c2ccc(Cl)s2)nc2c1c(C)nn2C | – | inconclusive: 18.5 µM [inhibitor, single point]
66 | COc1ccc2occ(C(C)=O)c2c1 | – | inconclusive: 0.117 µM [inhibitor, partial curve, poor fit]
67 | O=C(Nc1ccc(S(=O)(=O)N2CCc3ccccc32)cc1)c1ccco1 | – | inconclusive: 18.5 µM [inhibitor, single point]
68 | CCN1CCc2c(OCC(=O)N3CCCc4ccccc43)cccc2C1=O | – | inconclusive: 4.65 µM [inhibitor, partial curve, poor fit]
69 | O=C1c2ccccc2C(=O)N1CCCc1nc(-c2cccnc2)no1 | inactive: -0.796% [at 5.75 µM] | –
